These results are taken from publication PMC8382196.

Amino acid sequences for entries named in this document (tags omitted).
UniProt B3VKG9: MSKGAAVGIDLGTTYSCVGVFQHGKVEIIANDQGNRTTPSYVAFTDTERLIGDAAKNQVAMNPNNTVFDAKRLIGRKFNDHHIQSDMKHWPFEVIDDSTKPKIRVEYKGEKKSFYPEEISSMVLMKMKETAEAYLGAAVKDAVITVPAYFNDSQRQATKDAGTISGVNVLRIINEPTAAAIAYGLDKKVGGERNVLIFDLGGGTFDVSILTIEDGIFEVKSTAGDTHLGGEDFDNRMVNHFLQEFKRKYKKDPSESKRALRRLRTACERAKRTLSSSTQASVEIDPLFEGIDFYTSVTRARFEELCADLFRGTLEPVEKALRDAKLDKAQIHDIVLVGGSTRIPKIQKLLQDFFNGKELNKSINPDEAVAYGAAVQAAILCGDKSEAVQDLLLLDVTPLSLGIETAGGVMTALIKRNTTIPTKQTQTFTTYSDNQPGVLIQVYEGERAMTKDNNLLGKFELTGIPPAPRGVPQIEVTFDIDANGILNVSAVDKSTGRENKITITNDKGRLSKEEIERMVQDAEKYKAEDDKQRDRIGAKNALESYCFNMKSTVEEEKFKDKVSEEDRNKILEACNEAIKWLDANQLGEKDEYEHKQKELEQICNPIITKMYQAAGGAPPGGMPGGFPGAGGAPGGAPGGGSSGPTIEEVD
UniProt A0A0F7W424: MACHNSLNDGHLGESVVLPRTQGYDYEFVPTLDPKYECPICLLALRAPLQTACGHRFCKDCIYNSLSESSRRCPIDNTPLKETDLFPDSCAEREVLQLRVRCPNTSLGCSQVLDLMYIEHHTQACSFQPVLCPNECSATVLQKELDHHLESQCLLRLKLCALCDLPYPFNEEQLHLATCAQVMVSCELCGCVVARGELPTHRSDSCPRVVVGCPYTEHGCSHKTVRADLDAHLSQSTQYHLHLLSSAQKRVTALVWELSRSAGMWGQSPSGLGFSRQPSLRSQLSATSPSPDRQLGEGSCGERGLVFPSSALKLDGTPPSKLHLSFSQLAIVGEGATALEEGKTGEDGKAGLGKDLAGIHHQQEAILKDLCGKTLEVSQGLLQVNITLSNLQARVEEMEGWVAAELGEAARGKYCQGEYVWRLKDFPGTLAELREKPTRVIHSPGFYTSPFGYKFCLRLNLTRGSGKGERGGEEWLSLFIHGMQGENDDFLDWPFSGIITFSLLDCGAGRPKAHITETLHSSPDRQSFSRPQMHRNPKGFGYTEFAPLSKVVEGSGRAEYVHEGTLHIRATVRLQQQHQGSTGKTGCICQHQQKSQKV

For assay [1], the target named is heat shock protein 70 (Scylla paramamosain (endogenous in mud crab hemocytes)) (UniProt B3VKG9). The assay can be described thus: co-IP; mud crab hemocyte lysate, Co-IP with anti-HSP70 IgG, anti-TRAF6 IgG or anti-Ecsit IgG on Protein G-agarose beads, 4°C overnight, Western blot of the IP products; also crabs challenged with Vp, Vp+Exosome-PBS or Vp+Exosome-Vp before the Co-IP.

Assay [2] deals with TNF receptor associated factor 6 (Scylla paramamosain (endogenous in mud crab hemocytes)). The description is as above.

No constants are given. Whether binding was seen depends on the method and setting. In cells and extracts the contact can be indirect. Some entries that bind do so weakly or less than the wild type.

For “TNF receptor associated factor 6 (from UniProt A0A0F7W424 1-598)”, the binding result in assay [1] is on record as “binds”.

Take “heat shock protein 70 (from UniProt B3VKG9 1-650)”: in assay [2], the binding result is recorded as “binds”.
